Measurements reported in PubChem BioAssay AID743121 (NCATS, 2013).
This is an unselected part of about 26,000 deposited reagents. 167 of them (0.63%) were called active. 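Calls are per gene from RSA p-values that are not deposited; an individual active-marked siRNA can sensitise only weakly.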 Reagents against one gene are numbered here. Not all columns of the deposit are shown.

Aim: 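Genes whose silencing strengthens cell killing by camptothecin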 (primary screen)
System: MDA-MB-231 cells, a human breast cancer line
Reagents: single siRNA against human genes, 20 nM siRNA (0.8 pmol per well)
Time to read-out: 120 h (drug added 48 h after transfection, read 72 h later)
Challenge: camptothecin 20 nM (about EC30) for 72 h; vehicle 0.1% DMSO in parallel plates
Measured: 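Cell viability by ATP luminescence (CellTiter-Glo) as % of non-targeting siRNA wells, and the log2 ratio of viability without drug over viability with camptothecin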
Reading the numbers: log2 vehicle/camptothecin viability: higher = stronger sensitisation to camptothecin
Hit rule: 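Active genes have an RSA gene-level p-value below 0.001, computed from the ratios of their separate siRNAs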

Depletion of RYR2 (GeneID 6262) #1 came out at: log2 vehicle/camptothecin viability 0.28; inactive. RYR2 (GeneID 6262) #2 scored log2 vehicle/camptothecin viability -0.311; inactive. After knock-down of RYR2 (GeneID 6262) #3, the screen gave log2 vehicle/camptothecin viability 0.447; inactive. Against RYR2 (GeneID 6262) #4 the deposit lists log2 vehicle/camptothecin viability -0.131; inactive. Silencing of BRSK1 (GeneID 84446) #1 came out at: log2 vehicle/camptothecin viability -0.0989; inactive. Silencing of BRSK1 (GeneID 84446) #2 gave: log2 vehicle/camptothecin viability -0.175; inactive.

For BRSK1 (GeneID 84446) #3 the deposit lists log2 vehicle/camptothecin viability -0.274; inactive. For BRSK1 (GeneID 84446) #4, the entry reads log2 vehicle/camptothecin viability -0.32; inactive. A2M (GeneID 2) #1 scored log2 vehicle/camptothecin viability -0.0761; inactive. For A2M (GeneID 2) #2, the values are log2 vehicle/camptothecin viability 0.129; inactive. Against A2M (GeneID 2) #3 the deposit lists log2 vehicle/camptothecin viability -0.0426; inactive. Silencing of A2M (GeneID 2) #4 came out at: log2 vehicle/camptothecin viability -0.568; inactive.

Against CD7 (GeneID 924) #1, the entry reads log2 vehicle/camptothecin viability -0.321; inactive. CD7 (GeneID 924) #2 gave log2 vehicle/camptothecin viability -0.499; inactive. Against CD7 (GeneID 924) #3, the values are log2 vehicle/camptothecin viability -0.217; inactive. Silencing of CD7 (GeneID 924) #4 came out at: log2 vehicle/camptothecin viability 0.755; inactive.

4 neighbouring reagents from above:
BRSK1 (GeneID 84446) #4 | log2 vehicle/camptothecin viability: -0.32; call: inactive
A2M (GeneID 2) #1 | log2 vehicle/camptothecin viability: -0.0761; call: inactive
A2M (GeneID 2) #2 | log2 vehicle/camptothecin viability: 0.129; call: inactive
A2M (GeneID 2) #3 | log2 vehicle/camptothecin viability: -0.0426; call: inactive

Additional results:
Depletion of TAS1R2 (GeneID 80834) #1 came out at: log2 vehicle/camptothecin viability 0.103; inactive. TAS1R2 (GeneID 80834) #2 showed log2 vehicle/camptothecin viability -0.133; inactive. Silencing of TAS1R2 (GeneID 80834) #3 came out at: log2 vehicle/camptothecin viability -0.0657; inactive. With knock-down of TAS1R2 (GeneID 80834) #4 the results were log2 vehicle/camptothecin viability -0.267; inactive. Silencing of PFKP (GeneID 5214) #1 came out at: log2 vehicle/camptothecin viability -0.392; inactive. With knock-down of PFKP (GeneID 5214) #2, the record shows log2 vehicle/camptothecin viability 0.828; inactive.

Against PFKP (GeneID 5214) #3, the entry reads log2 vehicle/camptothecin viability -0.283; inactive. Depletion of PFKP (GeneID 5214) #4 gave: log2 vehicle/camptothecin viability -0.323; inactive. After knock-down of NAPSA (GeneID 9476) #1, the screen gave log2 vehicle/camptothecin viability -0.153; inactive. NAPSA (GeneID 9476) #2 gave log2 vehicle/camptothecin viability -0.302; inactive. After knock-down of NAPSA (GeneID 9476) #3, the screen gave log2 vehicle/camptothecin viability -0.468; inactive. With knock-down of NAPSA (GeneID 9476) #4 the results were log2 vehicle/camptothecin viability -0.259; inactive.

Against ZNRF4 (GeneID 148066) #1, the values are log2 vehicle/camptothecin viability -0.35; inactive. ZNRF4 (GeneID 148066) #2 showed log2 vehicle/camptothecin viability -0.0698; inactive. Against ZNRF4 (GeneID 148066) #3, the entry reads log2 vehicle/camptothecin viability -0.345; inactive. Depletion of ZNRF4 (GeneID 148066) #4 came out at: log2 vehicle/camptothecin viability -0.432; inactive. After knock-down of RAB40C (GeneID 57799) #1, the screen gave log2 vehicle/camptothecin viability -0.446; inactive. Against RAB40C (GeneID 57799) #2, the entry reads log2 vehicle/camptothecin viability 0.0283; inactive.

With knock-down of RAB40C (GeneID 57799) #3, the record shows log2 vehicle/camptothecin viability 0.754; inactive. RAB40C (GeneID 57799) #4 scored log2 vehicle/camptothecin viability -0.415; inactive. Silencing of FBXL15 (GeneID 79176) #1 resulted in: log2 vehicle/camptothecin viability -0.57; inactive. Depletion of FBXL15 (GeneID 79176) #2 resulted in: log2 vehicle/camptothecin viability -0.0681; inactive. FBXL15 (GeneID 79176) #3 gave log2 vehicle/camptothecin viability -0.338; inactive. Depletion of FBXL15 (GeneID 79176) #4 gave: log2 vehicle/camptothecin viability 0.472; inactive.

Against OGG1 (GeneID 4968) #1, the values are log2 vehicle/camptothecin viability -0.287; inactive. After knock-down of OGG1 (GeneID 4968) #2, the record shows log2 vehicle/camptothecin viability 1.08; inactive. OGG1 (GeneID 4968) #3 scored log2 vehicle/camptothecin viability -0.0194; inactive. Silencing of OGG1 (GeneID 4968) #4 resulted in: log2 vehicle/camptothecin viability -0.046; inactive. Silencing of OR2L13 (GeneID 284521) #1 resulted in: log2 vehicle/camptothecin viability 0.12; inactive. With knock-down of OR2L13 (GeneID 284521) #2, the screen gave log2 vehicle/camptothecin viability -0.315; inactive.

Depletion of OR2L13 (GeneID 284521) #3 resulted in: log2 vehicle/camptothecin viability -0.342; inactive. OR2L13 (GeneID 284521) #4 scored log2 vehicle/camptothecin viability 0.0622; inactive.
